# No constants are given. Whether binding was seen depends on the method and setting. In cells and extracts the contact can be indirect. Some entries that bind do so weakly or less than the wild type.
# By UniProt entry, the sequences of proteins in these tests, tags left out. Where a name states a change or a piece, a line headed by the entry shows the natural chain unless it says otherwise. Residues count along the entry.
# UniProt Q9GZV5: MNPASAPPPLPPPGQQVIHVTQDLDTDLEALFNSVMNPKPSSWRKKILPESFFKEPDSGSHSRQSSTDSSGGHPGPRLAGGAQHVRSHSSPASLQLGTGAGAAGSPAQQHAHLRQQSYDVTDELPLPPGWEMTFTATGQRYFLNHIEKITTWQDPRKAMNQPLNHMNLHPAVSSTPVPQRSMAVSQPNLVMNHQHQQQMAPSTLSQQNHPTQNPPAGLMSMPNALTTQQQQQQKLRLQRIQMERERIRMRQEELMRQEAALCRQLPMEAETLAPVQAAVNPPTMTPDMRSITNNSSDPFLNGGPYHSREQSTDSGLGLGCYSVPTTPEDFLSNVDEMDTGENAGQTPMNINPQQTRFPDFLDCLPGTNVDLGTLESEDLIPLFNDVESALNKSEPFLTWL
# UniProt Q16665: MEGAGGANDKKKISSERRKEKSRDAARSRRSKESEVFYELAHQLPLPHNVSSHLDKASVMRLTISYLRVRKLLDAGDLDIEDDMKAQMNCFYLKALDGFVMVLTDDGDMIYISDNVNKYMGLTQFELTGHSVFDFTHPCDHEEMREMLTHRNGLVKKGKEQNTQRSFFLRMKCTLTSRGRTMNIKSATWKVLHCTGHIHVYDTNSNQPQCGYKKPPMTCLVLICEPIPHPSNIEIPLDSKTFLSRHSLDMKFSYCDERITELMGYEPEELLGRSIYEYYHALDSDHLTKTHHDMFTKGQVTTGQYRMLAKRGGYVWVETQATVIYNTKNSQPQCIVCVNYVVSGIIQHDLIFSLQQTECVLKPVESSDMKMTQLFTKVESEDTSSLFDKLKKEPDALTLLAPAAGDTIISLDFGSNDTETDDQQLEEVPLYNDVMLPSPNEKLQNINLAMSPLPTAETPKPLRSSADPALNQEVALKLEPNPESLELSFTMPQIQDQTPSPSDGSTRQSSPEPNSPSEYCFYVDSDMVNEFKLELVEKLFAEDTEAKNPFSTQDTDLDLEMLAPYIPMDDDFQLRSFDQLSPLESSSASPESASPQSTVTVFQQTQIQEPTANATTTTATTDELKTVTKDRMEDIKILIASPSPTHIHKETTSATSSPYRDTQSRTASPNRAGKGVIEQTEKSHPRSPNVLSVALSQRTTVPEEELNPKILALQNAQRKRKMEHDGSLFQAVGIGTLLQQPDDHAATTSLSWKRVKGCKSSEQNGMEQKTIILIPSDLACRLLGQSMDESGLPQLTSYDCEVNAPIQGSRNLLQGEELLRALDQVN
# GST-HIF-1α (531-826) fusion protein: residues 531-826 of Q16665
# Key:
# [1] = molecular target: transcriptional co-activator with PDZ-binding motif (TAZ) (human (endogenous in MDA-MB-231)) (UniProt Q9GZV5); experiment: co-IP; endogenous proteins; 0.75 mg whole cell lysate (RIPA buffer) of MDA-MB-231 cells exposed to 1% O2 for 4 h, anti-HIF-1α, anti-TAZ or IgG with protein G-Sepharose overnight at 4°C; washed five times; immunoblot for HIF-1α and TAZ
# [2] = molecular target: GST-HIF-1α (531-826) fusion protein (UniProt Q16665); experiment: pull-down; equal molar amounts of GST or GST fusion protein immobilized on glutathione-Sepharose 4B beads, incubated overnight with 2 mg whole cell lysate of MDA-MB-231 cells exposed to 1% O2 for 24 h; washed five times; immunoblot with anti-TAZ and anti-GST; only the target purified
# [3] = molecular target: Hypoxia-inducible factor 1α (HIF-1α) (human (endogenous in MDA-MB-231)) (UniProt Q16665); experiment: co-IP; endogenous proteins; 0.75 mg whole cell lysate (RIPA buffer) of MDA-MB-231 cells exposed to 1% O2 for 4 h, anti-HIF-1α, anti-TAZ or IgG with protein G-Sepharose overnight at 4°C; washed five times; immunoblot for HIF-1α and TAZ
binding [1],binding [2],binding [3],Substance
binds,–,–,Hypoxia-inducible factor 1α (HIF-1α) (from UniProt Q16665 1-826)
–,binds,binds,transcriptional co-activator with PDZ-binding motif (TAZ) (from UniProt Q9GZV5 1-400)

# Source: article PMC4494903
